Results deposited as PubChem BioAssay AID686943 (Drosophila RNAi Screening Center, 2013).
In all, the deposit lists about 23,000 reagents; shown is an unselected part of those with a known target gene and a result. 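Extra replicates exist only for a retested subset of genes; insulin dose and duration not given; both raised and lowered dpERK matter.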 Names joined by + are all predicted targets of the reagent. Further read-outs or replicates are left out here. No sequences are given here. Not given: the amount of reagent, the time to read-out.

- Assay: 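Search across the genome for regulators of signalling from receptor tyrosine kinase to ERK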 (primary screen)
- Cell system: Drosophila S2R+ haemocyte-like cells expressing YFP-tagged ERK (Rolled)
- Reagent: long dsRNA against Drosophila genes
- Conditions: insulin stimulation versus unstimulated cells; dose and duration not given
- Read-out: 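Per-plate z-scores of phospho-ERK immunostaining normalised to YFP-tagged ERK, measured with and without insulin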
- Reading the numbers: replicate 1, z-score of dpERK with insulin: higher = more active ERK per ERK-YFP after insulin

CG14683 [DRSC17035] | replicate 1, z-score of dpERK with insulin = -0.18
Cyp6a9 (Cytochrome P450 6a9) [DRSC07385] | replicate 1, z-score of dpERK with insulin = 0.99
CG42246 [DRSC17520] | replicate 1, z-score of dpERK with insulin = -0.65
stl (stall) [DRSC04396] | replicate 1, z-score of dpERK with insulin = 0.82
BicD (Bicaudal D) [DRSC02006] | replicate 1, z-score of dpERK with insulin = 0.22
CG14205 [DRSC19560] | replicate 1, z-score of dpERK with insulin = -0.5
CG33172 [DRSC21793] | replicate 1, z-score of dpERK with insulin = 0.49
dve (defective proventriculus) [DRSC04680] | replicate 1, z-score of dpERK with insulin = -0.24
Jon99Fii (Jonah 99Fii) [DRSC15430] | replicate 1, z-score of dpERK with insulin = 0.13
CG33267 [DRSC09120] | replicate 1, z-score of dpERK with insulin = 0.28
CR31824 (pseudo) [DRSC01517] | replicate 1, z-score of dpERK with insulin = -0.64
CG32271 [DRSC08198] | replicate 1, z-score of dpERK with insulin = 0.87
Ilp2 (Insulin-like peptide 2) [DRSC10968] | replicate 1, z-score of dpERK with insulin = -0.53
CG15553 [DRSC15091] | replicate 1, z-score of dpERK with insulin = 0.41
sut3 (sugar transporter 3) [DRSC07702] | replicate 1, z-score of dpERK with insulin = -0.06
CG12128 + CG1407 [DRSC06446] | replicate 1, z-score of dpERK with insulin = -0.2
Snx6 (Sorting nexin 6) [DRSC03081] | replicate 1, z-score of dpERK with insulin = 0.3
Ir7g (Ionotropic receptor 7g) [DRSC18008] | replicate 1, z-score of dpERK with insulin = -0.27
CG16978 [DRSC02553] | replicate 1, z-score of dpERK with insulin = -0.33
CG15258 [DRSC02478] | replicate 1, z-score of dpERK with insulin = -1
Cand1 (Cullin-associated and neddylation-dissociated 1) [DRSC01992] | replicate 1, z-score of dpERK with insulin = 0.23

Look-ups from the entries so far.
CG15258 [DRSC02478], replicate 1, z-score of dpERK with insulin = -1
CG14205 [DRSC19560], replicate 1, z-score of dpERK with insulin → -0.5
